Laboratory results published in paper PMC12165855.
No constants are given. Whether binding was seen depends on the method and setting. Binding seen in cells or lysates may run through a third protein. Some entries that bind do so weakly or less than the wild type. Sequences can lack the tags named with a protein.

Target: T1, KDM4C histone lysine demethylase (human (endogenous in SUM149)) (UniProt Q9H3R0)
T1 sequence: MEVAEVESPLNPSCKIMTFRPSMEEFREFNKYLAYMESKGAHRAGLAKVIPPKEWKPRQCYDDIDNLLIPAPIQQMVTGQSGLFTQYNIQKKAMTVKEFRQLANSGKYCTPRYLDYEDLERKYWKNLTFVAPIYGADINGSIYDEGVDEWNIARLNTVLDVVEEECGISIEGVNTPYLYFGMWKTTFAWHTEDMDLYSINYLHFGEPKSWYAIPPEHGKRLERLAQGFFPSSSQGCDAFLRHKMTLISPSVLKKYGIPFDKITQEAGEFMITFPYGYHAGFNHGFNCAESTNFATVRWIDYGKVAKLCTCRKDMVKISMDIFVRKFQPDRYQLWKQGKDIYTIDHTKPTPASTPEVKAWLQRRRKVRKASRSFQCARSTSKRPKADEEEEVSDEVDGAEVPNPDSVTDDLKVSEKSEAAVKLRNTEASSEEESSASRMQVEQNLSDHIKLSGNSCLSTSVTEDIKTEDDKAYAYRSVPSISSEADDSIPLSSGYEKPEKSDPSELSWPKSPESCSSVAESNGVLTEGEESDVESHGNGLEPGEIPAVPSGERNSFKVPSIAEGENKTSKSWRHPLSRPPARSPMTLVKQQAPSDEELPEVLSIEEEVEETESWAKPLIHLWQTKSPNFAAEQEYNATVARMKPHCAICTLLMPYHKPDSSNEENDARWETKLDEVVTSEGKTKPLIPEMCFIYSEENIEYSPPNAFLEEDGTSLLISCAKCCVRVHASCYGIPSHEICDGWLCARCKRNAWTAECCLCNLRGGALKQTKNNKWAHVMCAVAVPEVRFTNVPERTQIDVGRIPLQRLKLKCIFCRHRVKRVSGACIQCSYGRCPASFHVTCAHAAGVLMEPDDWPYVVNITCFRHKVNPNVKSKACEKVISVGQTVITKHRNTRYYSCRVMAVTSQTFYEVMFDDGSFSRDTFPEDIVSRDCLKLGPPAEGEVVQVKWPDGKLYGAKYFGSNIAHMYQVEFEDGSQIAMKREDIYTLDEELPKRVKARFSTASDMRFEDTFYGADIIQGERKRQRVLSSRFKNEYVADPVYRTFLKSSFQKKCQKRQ
Assay: co-IP; SUM149 nuclear lysate (300 mM NaCl, 0.5% NP40), sonicated, diluted twofold, DNase I digested; 5 µg specific antibody (KDM4C, GRHL2 or CTSL) or isotype IgG overnight at 4 °C, protein A/G magnetic beads, immunoblot with 10% input

binding: binds
B1: grainyhead-like 2 transcription factor (protein, UniProt Q6ISB3 1-625)
chain: MSQESDNNKRLVALVPMPSDPPFNTRRAYTSEDEAWKSYLENPLTAATKAMMSINGDEDSAAALGLLYDYYKVPRDKRLLSVSKASDSQEDQEKRNCLGTSEAQSNLSGGENRVQVLKTVPVNLSLNQDHLENSKREQYSISFPESSAIIPVSGITVVKAEDFTPVFMAPPVHYPRGDGEEQRVVIFEQTQYDVPSLATHSAYLKDDQRSTPDSTYSESFKDAATEKFRSASVGAEEYMYDQTSSGTFQYTLEATKSLRQKQGEGPMTYLNKGQFYAITLSETGDNKCFRHPISKVRSVVMVVFSEDKNRDEQLKYWKYWHSRQHTAKQRVLDIADYKESFNTIGNIEEIAYNAVSFTWDVNEEAKIFITVNCLSTDFSSQKGVKGLPLMIQIDTYSYNNRSNKPIHRAYCQIKVFCDKGAERKIRDEERKQNRKKGKGQASQTQCNSSSDGKLAAIPLQKKSDITYFKTMPDLHSQPVLFIPDVHFANLQRTGQVYYNTDDEREGGSVLVKRMFRPMEEEFGPVPSKQMKEEGTKRVLLYVRKETDDVFDALMLKSPTVKGLMEAISEKYGLPVEKIAKLYKKSKKGILVNMDDNIIEHYSNEDTFILNMESMVEGFKVTLMEI
